According to US4370330A, “Method of enhancing circulation with piperazines” (Merz & Company, priority 1979, dated 1983):
Read-outs that look alike come from different tables or passages of the source.

Q: With `C(=C\c1ccccc1)/CN1CCN(C(c2ccccc2)c2ccccc2)CC1` [Cinnarizine, reference compound] as the molecule, how does the ED50 (Table 2, mean effective dose) read?
A: The ED50 was 0,6 mg/kg.

Q: What about the ED50 (Table 6) of the same molecule?
A: Its ED50 is 0.6 mg/kg.
